{"source": "patent US4000259A", "about": "“Cyclic dodecapeptide analogs of somatostatin and intermediates” (American Home Products Corporation, priority 1975, dated 1976)", "key": {"[1]": {"test_system": "growth hormone", "assay": "In vivo effect on growth hormone levels in nembutal-treated rats, radioimmunoassay", "conditions": "dose 200 μg/kg, blood 15 minutes after injection, control 296 ± 25", "description": "(§1) The effect on glucagon, growth hormone and insulin levels of the compound of Example 7 was determined by injecting rats weighing about 200-240 g first with nembutal intraperitoneally at a dose of 50 mg/kg then after 5 minutes injecting the rats subcutaneously with a solution of the compound of Example 7 in saline at a dose of 3.1 mg/kg per rat. Blood samples are taken 15 minutes after injection with the compound of Example 7. The glucagon, growth hormone and insulin levels were determined by radioimmunoassay."}, "[2]": {"test_system": "insulin", "assay": "In vivo effect on insulin levels in nembutal-treated rats, radioimmunoassay", "conditions": "dose 200 μg/kg, blood 15 minutes after injection, control 171 ± 4", "description": "as §1"}}, "note": "At least one peptide structure holds a part that was inferred or is arguable (an end, a ring closure or a residue)."}
{"smiles": "C[C@H](N)C(=O)NCC(=O)N[C@H]1CSSC[C@@H](C(=O)O)NC(=O)[C@H](CO)NC(=O)[C@H]([C@@H](C)O)NC(=O)[C@H](Cc2ccccc2)NC(=O)[C@H]([C@@H](C)O)NC(=O)[C@H](CCCCN)NC(=O)[C@H](Cc2c[nH]c3ccccc23)NC(=O)[C@H](Cc2ccccc2)NC(=O)[C@H](Cc2ccccc2)NC(=O)[C@H](CC(N)=O)NC(=O)[C@H](CCCCN)NC1=O", "note": "[Somatostatin]", "values": [{"measurement": "GH", "setting": "[1]", "result": "60 ± 6", "unit": "ng/kg"}, {"measurement": "Insulin", "setting": "[2]", "result": "107 ± 8", "unit": "μU/ml"}]}
